Among the data in paper PMC3566133, “Molecular Analysis of the Prostacyclin Receptor’s Interaction with the PDZ1 Domain of Its Adaptor Protein PDZK1” (PLoS ONE, 2013) are binding values, retold here.

For the experiment, the target named is T1, recombinant protein corresponding to PDZ domain 1 (PDZ1) of PDZK1 (mouse).
T1 sequence (Q9JIL4 whole entry, looked up): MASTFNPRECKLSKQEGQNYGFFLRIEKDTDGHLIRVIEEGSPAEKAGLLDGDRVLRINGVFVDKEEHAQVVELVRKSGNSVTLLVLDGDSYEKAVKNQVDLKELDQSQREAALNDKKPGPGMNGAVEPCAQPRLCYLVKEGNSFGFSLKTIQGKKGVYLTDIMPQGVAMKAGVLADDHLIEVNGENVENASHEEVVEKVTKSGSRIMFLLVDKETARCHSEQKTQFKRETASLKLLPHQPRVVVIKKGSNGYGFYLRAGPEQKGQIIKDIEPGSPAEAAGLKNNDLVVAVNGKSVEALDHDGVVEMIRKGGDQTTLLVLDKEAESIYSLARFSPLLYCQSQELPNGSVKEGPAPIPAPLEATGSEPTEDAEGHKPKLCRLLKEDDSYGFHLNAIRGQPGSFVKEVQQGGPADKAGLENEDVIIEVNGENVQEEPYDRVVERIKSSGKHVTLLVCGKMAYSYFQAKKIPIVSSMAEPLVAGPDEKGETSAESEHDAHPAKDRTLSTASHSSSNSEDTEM
Put plainly: condition: 1.0 mM peptide titrated against 0.03 mM protein; ITC; 1.0 mM peptide injected in 10 µl aliquots into 0.03 mM PDZ1 or full length PDZK1 in the cell; 150 mM NaCl, 25 mM Tris pH 8.0, 0.5 mM TCEP, 20°C; VP-ITC; both purified.

No constants are given. Whether binding was seen depends on the method and setting.

In the case of KSEAIAAC [Peptide 2 (K407SEAIAAC414), carboxy-terminus of IP devoid of the three terminal amino acids SLC], the binding entry was “no binding”.
